Among the data in patent US20050181995A1 are binding values, retold here.

Sequences of proteins named here, by UniProt entry; tags and fusion partners are left off. Residues count along the entry.
UniProt P35968, residues 20-764: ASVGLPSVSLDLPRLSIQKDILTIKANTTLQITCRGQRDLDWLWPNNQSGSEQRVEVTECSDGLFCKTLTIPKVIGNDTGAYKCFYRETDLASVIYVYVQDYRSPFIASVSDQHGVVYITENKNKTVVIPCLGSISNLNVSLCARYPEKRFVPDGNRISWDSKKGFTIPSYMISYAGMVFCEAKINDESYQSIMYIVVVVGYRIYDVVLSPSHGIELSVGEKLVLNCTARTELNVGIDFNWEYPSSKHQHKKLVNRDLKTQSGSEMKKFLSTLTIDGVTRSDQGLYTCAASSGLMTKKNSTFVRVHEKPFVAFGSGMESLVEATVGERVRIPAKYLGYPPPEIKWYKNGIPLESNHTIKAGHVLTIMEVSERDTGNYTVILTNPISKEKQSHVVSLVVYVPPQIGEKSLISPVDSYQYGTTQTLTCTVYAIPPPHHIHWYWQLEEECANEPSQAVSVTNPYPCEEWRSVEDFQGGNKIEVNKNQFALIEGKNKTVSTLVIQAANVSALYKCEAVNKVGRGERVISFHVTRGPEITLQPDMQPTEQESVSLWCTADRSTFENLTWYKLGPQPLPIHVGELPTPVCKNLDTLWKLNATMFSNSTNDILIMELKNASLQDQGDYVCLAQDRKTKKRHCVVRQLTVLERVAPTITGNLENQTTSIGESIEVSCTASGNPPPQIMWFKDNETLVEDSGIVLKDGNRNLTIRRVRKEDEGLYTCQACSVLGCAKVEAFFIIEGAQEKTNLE

This test concerns the target KDR-IgG (UniProt P35968). Description: SPR (BIAcore 3000), KDR-IgG immobilised on CM5 chip.

These are yes or no findings as the source states them, for the method shown. Some entries that bind do so weakly or less than the wild type.

B1: HF (hypotensive factor from the venom of Vipera aspis aspis) (ligand)
chain: EVRPFLEVHERSACQARETLVSILQEYPDEISDIFRPSCVAVLRCSGCCTDESLKCTPVGKHTVDLQIMRVNPRTQSSKMEVMKFTEHTACECRPRRKQGEPDGPKEKPR
For B1, the binding entry is recorded as “binds”.
